Values are relative to the signal before dosing, not to a vehicle control; the signal also falls without drug.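 Fibroblast labels name human fibroblasts: mostly primary ones from tissues such as uterus (C12385, HUF), lung (H6013), bone (Hs27A), adrenal (HADF) and skin (WS1), plus mammary HMF and breast cancer-associated Hs343T. The cancer cells are basal-like or mesenchymal-like triple-negative breast cancer lines. The paper calls a changed response a hit when it shifts by more than 3x the replicate standard deviation. The tissue of the other fibroblasts is not given here.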
Tested on: MDAMB468
Assay: relative JC-1 red fluorescence (viability) vs pre-drug, coculture with fibroblast (fraction); higher = more viable cancer cells
Method: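 JC-1 labelled TNBC cells cocultured 1:1 (1,500 cells each) with CellTrace Violet stained primary or stromal fibroblasts in 384-well plates in FluoroBrite medium, treated with one of 42 anticancer drugs at 0.1, 1, 10 or 100 uM. JC-1 red fluorescence (mitochondrial integrity in cancer cells only) was read by plate reader every 8 h for 72 h. Values are normalised to each well's pre-drug value. The stock of one drug was tenfold lower, so its dose labels may be too high.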

CC(C)C[C@H](NC(=O)[C@@H](COC(C)(C)C)NC(=O)[C@H](Cc1ccc(O)cc1)NC(=O)[C@H](CO)NC(=O)[C@H](Cc1c[nH]c2ccccc12)NC(=O)[C@H](Cc1cnc[nH]1)NC(=O)[C@@H]1CCC(=O)N1)C(=O)N[C@@H](CCCNC(=N)N)C(=O)N1CCC[C@H]1C(=O)NNC(N)=O [Goserelin]
relative JC-1 red fluorescence
Conditions | 8 h | 16 h | 24 h | 32 h | 40 h | 48 h | 56 h | 64 h | 72 h
0.1 µM, coculture fibroblast: C12385 | 0.8564 | 0.7823 | 0.7379 | 0.67 | 0.62 | 0.607 | 0.566 | 0.536 | 0.522
0.1 µM, coculture fibroblast: H6013 | 0.8443 | 0.852 | 0.808 | 0.796 | 0.763 | 0.771 | 0.745 | 0.733 | 0.681
0.1 µM, coculture fibroblast: H6019 | 0.816 | 0.791 | 0.76 | 0.71 | 0.67 | 0.647 | 0.601 | 0.566 | 0.541
0.1 µM, coculture fibroblast: H6076 | 0.92 | 0.829 | 0.892 | 0.878 | 0.81 | 0.7945 | 0.745 | 0.721 | 0.749
0.1 µM, coculture fibroblast: H6231 | 0.8357 | 0.901 | 0.806 | 0.818 | 0.764 | 0.734 | 0.692 | 0.667 | 0.654
0.1 µM, coculture fibroblast: HADF | 0.886 | 0.8276 | 0.789 | 0.779 | 0.727 | 0.719 | 0.673 | 0.666 | 0.632
0.1 µM, coculture fibroblast: HCFa | 0.8353 | 0.818 | 0.7662 | 0.739 | 0.672 | 0.663 | 0.6138 | 0.581 | 0.5452
0.1 µM, coculture fibroblast: HCPF | 0.8819 | 0.946 | 0.88 | 0.871 | 0.788 | 0.7539 | 0.692 | 0.6722 | 0.652
0.1 µM, coculture fibroblast: HHSteC | 0.872 | 0.821 | 0.771 | 0.728 | 0.676 | 0.676 | 0.608 | 0.579 | 0.536
0.1 µM, coculture fibroblast: HMF | 0.831 | 0.822 | 0.886 | 0.841 | 0.767 | 0.744 | 0.686 | 0.668 | 0.644
0.1 µM, coculture fibroblast: HPFa | 0.9512 | 0.882 | 0.842 | 0.799 | 0.76 | 0.75 | 0.68 | 0.651 | 0.578
0.1 µM, coculture fibroblast: HUF | 0.9066 | 0.8152 | 0.757 | 0.702 | 0.652 | 0.627 | 0.579 | 0.552 | 0.535
0.1 µM, coculture fibroblast: Hs5 | 0.848 | 0.949 | 0.888 | 0.85 | 0.76974 | 0.734 | 0.7 | 0.662 | 0.67
0.1 µM, coculture fibroblast: Hs27A | 0.8672 | 0.815 | 0.756 | 0.753 | 0.686 | 0.674 | 0.627 | 0.605 | 0.566
0.1 µM, coculture fibroblast: Hs343T | 0.895 | 0.9814 | 0.9054 | 0.875 | 0.801 | 0.756 | 0.693 | 0.67 | 0.637
0.1 µM, coculture fibroblast: WS1 | 0.822 | 0.7729 | 0.727 | 0.6535 | 0.603 | 0.57 | 0.54 | 0.517 | 0.502
1 µM, coculture fibroblast: C12385 | 0.858 | 0.817 | 0.759 | 0.684 | 0.648 | 0.643 | 0.601 | 0.576 | 0.565
1 µM, coculture fibroblast: H6013 | 0.8904 | 0.833 | 0.824 | 0.825 | 0.804 | 0.816 | 0.79 | 0.784 | 0.73
1 µM, coculture fibroblast: H6019 | 0.844 | 0.797 | 0.773 | 0.7375 | 0.7106 | 0.6995 | 0.65732 | 0.6246 | 0.5946
1 µM, coculture fibroblast: H6076 | 0.937 | 0.943 | 0.897 | 0.917 | 0.85 | 0.854 | 0.826 | 0.824 | 0.888
1 µM, coculture fibroblast: H6231 | 0.839 | 0.88383 | 0.826 | 0.794 | 0.732 | 0.714 | 0.669 | 0.644 | 0.629
1 µM, coculture fibroblast: HADF | 0.917 | 0.843 | 0.816 | 0.816 | 0.78 | 0.76 | 0.721 | 0.71 | 0.663
1 µM, coculture fibroblast: HCFa | 0.88898 | 0.8189 | 0.78 | 0.756 | 0.704 | 0.701 | 0.642 | 0.614 | 0.55
1 µM, coculture fibroblast: HCPF | 0.883 | 0.924 | 0.814 | 0.822 | 0.748 | 0.734 | 0.691 | 0.687 | 0.679
1 µM, coculture fibroblast: HHSteC | 0.951 | 0.914 | 0.866 | 0.841 | 0.794 | 0.797 | 0.731 | 0.706 | 0.65
1 µM, coculture fibroblast: HMF | 0.856 | 0.933 | 0.881 | 0.853 | 0.792 | 0.775 | 0.716 | 0.702 | 0.68
1 µM, coculture fibroblast: HPFa | 0.9505 | 0.9432 | 0.879 | 0.825 | 0.799 | 0.796 | 0.73 | 0.693 | 0.598
1 µM, coculture fibroblast: HUF | 0.896 | 0.784 | 0.733 | 0.673 | 0.628 | 0.5959 | 0.553 | 0.527 | 0.498
1 µM, coculture fibroblast: Hs5 | 0.955 | 0.948 | 0.918 | 0.896 | 0.835 | 0.804 | 0.7757 | 0.746 | 0.771
1 µM, coculture fibroblast: Hs27A | 0.8524 | 0.778 | 0.76 | 0.773 | 0.72 | 0.708 | 0.667 | 0.64 | 0.588
1 µM, coculture fibroblast: Hs343T | 0.8765 | 0.948 | 0.885 | 0.89 | 0.815 | 0.804 | 0.754 | 0.743 | 0.725
1 µM, coculture fibroblast: WS1 | 0.8702 | 0.794 | 0.733 | 0.686 | 0.659 | 0.633 | 0.602 | 0.577 | 0.574
